According to patent US6262116A, “Transcription therapy for cancers” (Sloan-Kettering Institute for Cancer Research, priority 1998, dated 2001):
Like-named read-outs stand apart in the source and are kept apart here. The name of at least one read-out is uncertain.

Legend:
[1] = Plasma concentrations of phenylbutyrate during clinical infusion; type: in vivo, human; settings: patient, intravenous infusion; 150 mg/kg; read-out: concentration realized during a substantial portion of the treatment period
[2] = read-out: hematic retinoic acid concentration; during in vivo retinoic acid treatment of APL patients; cited from earlier work

Q: For `O=C(O)CCCc1ccccc1` [phenylbutyrate, sodium phenylbutyrate], which concentration [1] is on record?
A: Its concentration is roughly 400 µM.

Q: Which concentration [2] does the source give for `CC1=C(/C=C/C(C)=C/C=C/C(C)=C/C(=O)O)C(C)(C)CCC1` [retinoic acid, all-trans-retinoic acid] here?
A: Its concentration is roughly 1 µM.
